The text below walks through data of the supplement of paper PMC10849652.

The chains behind the UniProt entries cited, without tags or fusion partners. Where a name states a change or a piece, a line headed by the entry shows the natural chain unless it says otherwise.
UniProt Q8IW92: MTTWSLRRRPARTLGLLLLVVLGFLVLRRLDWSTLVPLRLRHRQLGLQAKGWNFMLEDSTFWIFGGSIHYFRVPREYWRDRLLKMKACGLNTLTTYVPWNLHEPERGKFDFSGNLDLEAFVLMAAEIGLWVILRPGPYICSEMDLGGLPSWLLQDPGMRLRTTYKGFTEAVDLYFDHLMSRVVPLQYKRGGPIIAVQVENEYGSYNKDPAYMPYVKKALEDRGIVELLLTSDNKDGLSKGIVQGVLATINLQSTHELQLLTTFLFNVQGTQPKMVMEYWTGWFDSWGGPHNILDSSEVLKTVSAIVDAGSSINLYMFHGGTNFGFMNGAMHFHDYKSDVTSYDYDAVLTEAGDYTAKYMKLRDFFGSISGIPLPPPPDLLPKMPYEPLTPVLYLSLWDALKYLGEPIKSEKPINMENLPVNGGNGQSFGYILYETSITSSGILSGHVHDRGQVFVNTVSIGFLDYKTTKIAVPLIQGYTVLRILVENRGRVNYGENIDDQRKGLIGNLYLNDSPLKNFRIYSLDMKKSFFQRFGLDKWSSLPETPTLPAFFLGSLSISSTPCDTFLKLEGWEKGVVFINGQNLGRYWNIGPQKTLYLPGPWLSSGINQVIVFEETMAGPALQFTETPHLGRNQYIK
UniProt O14908: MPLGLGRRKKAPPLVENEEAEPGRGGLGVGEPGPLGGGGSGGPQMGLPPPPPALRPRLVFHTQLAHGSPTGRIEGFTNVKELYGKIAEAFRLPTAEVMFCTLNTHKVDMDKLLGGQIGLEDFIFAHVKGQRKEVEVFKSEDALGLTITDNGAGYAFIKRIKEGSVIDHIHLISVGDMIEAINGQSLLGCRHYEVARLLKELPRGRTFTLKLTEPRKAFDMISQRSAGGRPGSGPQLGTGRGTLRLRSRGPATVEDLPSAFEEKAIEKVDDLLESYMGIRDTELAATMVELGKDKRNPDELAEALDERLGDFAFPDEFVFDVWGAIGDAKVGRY
UniProt Q08379: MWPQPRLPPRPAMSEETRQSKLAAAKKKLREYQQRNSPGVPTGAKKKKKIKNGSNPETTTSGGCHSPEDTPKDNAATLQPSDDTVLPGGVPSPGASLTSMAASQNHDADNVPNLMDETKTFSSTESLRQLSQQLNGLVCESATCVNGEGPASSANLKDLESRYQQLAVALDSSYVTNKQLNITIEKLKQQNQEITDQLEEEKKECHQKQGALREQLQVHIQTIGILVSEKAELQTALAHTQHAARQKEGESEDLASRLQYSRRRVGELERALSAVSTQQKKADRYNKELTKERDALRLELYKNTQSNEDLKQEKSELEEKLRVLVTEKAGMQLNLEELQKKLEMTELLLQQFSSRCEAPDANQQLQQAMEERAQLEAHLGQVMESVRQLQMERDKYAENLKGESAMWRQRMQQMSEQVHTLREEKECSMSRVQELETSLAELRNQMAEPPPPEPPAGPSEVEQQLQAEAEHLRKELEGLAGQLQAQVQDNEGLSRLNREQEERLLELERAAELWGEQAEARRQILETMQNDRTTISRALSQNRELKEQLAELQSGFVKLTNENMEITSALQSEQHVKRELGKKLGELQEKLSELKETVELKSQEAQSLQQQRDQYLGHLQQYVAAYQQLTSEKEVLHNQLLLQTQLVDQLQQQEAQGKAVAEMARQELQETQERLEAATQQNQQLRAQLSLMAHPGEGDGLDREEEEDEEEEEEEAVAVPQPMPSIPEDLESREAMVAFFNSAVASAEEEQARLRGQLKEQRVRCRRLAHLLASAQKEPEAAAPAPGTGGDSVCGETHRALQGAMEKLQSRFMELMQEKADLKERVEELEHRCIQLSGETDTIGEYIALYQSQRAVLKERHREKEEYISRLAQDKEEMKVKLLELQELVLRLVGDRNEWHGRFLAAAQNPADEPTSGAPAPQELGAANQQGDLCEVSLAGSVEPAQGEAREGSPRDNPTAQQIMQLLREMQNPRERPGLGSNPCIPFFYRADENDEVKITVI
UniProt Q8TBA6: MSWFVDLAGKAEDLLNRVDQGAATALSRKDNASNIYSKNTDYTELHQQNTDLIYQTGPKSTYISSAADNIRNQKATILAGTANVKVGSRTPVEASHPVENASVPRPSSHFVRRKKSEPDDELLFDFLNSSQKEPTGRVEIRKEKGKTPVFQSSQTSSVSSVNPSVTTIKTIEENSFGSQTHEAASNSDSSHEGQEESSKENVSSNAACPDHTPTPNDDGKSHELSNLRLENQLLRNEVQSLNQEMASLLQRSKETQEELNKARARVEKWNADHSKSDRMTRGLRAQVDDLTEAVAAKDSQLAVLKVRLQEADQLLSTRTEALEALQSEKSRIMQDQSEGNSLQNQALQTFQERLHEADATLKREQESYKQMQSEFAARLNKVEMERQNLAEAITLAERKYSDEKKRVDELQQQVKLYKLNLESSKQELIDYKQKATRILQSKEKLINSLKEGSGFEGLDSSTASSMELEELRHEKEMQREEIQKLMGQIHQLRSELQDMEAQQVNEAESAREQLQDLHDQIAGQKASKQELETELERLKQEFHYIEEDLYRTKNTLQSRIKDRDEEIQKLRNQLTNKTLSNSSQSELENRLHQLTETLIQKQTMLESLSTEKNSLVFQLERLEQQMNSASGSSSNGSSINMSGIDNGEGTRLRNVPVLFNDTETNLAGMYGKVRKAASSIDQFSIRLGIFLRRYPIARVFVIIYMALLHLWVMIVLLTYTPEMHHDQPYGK
UniProt P17900: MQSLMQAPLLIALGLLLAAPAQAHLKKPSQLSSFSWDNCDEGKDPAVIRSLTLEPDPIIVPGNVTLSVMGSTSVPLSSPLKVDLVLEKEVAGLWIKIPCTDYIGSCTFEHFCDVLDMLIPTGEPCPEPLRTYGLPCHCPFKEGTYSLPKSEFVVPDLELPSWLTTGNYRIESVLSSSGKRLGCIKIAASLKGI
UniProt P28799: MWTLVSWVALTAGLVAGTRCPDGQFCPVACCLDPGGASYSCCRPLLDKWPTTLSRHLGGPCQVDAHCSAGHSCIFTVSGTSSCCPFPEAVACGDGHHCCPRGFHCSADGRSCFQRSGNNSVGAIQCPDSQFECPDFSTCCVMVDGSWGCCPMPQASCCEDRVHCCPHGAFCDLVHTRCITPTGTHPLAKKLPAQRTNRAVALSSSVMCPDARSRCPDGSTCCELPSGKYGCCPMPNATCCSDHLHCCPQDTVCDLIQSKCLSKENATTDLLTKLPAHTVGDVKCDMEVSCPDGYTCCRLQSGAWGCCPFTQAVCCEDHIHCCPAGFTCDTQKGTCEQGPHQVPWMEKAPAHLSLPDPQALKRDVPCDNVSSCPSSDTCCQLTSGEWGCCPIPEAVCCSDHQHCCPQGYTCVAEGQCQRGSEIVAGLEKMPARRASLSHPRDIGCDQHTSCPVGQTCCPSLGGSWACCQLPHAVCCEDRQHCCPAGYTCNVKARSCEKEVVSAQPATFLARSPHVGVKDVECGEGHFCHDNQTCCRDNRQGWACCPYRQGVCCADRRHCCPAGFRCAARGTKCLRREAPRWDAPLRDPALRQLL
UniProt Q9UKJ3: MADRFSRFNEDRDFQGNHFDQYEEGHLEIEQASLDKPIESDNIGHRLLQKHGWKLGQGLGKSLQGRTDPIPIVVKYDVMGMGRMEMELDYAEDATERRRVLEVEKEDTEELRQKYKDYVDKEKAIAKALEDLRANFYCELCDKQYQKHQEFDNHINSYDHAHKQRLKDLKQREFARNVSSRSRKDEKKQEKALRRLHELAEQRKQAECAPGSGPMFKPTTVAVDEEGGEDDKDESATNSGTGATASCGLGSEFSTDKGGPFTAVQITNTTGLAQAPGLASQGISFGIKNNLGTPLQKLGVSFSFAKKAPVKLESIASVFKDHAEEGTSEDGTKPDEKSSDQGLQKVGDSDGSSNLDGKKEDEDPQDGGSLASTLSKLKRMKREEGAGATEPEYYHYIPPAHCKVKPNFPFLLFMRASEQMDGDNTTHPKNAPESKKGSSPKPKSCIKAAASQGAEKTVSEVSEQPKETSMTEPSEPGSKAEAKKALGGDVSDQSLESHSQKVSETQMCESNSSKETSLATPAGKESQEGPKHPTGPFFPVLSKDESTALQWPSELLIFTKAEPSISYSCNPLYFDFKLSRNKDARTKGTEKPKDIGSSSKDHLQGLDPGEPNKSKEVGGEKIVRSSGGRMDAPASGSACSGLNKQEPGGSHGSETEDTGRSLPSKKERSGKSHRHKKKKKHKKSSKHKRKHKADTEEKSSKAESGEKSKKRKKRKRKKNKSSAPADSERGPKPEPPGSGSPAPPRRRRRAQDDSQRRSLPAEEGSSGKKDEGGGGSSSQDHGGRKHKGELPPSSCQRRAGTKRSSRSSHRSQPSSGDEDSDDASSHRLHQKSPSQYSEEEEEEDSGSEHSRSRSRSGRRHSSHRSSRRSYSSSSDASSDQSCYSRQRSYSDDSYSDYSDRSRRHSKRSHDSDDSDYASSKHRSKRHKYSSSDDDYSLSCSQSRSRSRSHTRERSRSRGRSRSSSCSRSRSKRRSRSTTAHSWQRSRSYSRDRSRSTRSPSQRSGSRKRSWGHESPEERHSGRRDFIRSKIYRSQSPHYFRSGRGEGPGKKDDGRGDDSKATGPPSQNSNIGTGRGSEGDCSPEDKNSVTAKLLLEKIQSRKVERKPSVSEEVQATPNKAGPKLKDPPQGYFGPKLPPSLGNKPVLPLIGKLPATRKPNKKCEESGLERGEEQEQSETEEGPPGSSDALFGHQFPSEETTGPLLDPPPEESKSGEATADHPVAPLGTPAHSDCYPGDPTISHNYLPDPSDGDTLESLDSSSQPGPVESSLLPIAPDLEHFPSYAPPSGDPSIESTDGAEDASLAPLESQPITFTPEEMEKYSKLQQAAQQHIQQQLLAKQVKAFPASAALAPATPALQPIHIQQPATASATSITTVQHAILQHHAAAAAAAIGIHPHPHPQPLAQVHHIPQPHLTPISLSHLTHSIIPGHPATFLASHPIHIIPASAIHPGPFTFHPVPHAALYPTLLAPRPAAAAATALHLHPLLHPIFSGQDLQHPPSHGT
UniProt Q7Z2K8: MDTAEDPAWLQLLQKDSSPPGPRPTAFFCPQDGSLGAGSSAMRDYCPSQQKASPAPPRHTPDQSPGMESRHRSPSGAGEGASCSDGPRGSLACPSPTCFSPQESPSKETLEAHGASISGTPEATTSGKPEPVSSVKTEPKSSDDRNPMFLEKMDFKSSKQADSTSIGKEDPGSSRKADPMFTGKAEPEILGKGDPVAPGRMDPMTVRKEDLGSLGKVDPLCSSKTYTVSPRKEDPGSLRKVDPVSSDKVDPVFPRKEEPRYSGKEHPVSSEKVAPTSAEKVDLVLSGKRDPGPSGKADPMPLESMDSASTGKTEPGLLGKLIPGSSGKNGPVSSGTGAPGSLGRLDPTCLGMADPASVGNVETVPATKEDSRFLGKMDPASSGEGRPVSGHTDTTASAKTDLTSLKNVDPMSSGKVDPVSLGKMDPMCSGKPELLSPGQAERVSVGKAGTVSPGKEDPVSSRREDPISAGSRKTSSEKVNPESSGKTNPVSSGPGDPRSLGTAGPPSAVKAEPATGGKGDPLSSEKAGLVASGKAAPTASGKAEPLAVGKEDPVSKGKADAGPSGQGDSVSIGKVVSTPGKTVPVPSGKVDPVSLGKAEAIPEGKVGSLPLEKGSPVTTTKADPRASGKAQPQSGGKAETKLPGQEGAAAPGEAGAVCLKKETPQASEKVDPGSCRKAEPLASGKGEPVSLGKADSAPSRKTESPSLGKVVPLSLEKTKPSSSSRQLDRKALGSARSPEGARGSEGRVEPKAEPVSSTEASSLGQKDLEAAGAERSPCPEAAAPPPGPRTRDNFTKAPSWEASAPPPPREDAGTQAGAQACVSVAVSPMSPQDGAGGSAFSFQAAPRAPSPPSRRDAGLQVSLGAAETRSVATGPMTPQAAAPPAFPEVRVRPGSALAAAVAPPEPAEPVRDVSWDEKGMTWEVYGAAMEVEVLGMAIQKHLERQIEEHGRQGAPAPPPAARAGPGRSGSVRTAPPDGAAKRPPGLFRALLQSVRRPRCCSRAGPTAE
UniProt Q5VW38: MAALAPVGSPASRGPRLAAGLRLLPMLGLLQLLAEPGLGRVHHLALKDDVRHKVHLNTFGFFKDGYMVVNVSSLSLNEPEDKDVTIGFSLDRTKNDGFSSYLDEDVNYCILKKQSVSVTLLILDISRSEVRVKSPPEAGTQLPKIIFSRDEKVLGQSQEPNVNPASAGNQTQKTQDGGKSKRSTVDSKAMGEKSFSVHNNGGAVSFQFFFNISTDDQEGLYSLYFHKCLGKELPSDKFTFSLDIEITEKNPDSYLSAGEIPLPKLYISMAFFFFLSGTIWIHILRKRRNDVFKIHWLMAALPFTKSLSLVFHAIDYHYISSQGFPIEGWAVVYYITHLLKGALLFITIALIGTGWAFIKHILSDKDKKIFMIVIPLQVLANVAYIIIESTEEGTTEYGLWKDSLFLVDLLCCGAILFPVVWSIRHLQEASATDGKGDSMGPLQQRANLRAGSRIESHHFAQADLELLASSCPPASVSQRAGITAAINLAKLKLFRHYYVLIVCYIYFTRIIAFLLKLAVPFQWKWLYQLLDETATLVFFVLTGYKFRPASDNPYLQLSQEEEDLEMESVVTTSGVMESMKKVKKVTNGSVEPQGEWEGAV

The list shows a part of the results.

Compound in one assay: Cc1cccc(CC(=O)N2CCc3c2ccc(-c2cn(C)c4ncnc(N)c24)c3F)n1
Description: log2 fold change, soluble protein after heating vs DMSO (PISA); higher = thermal stabilisation; K562 cells, 10 uM, 30 min; active = over 0.2 and 3.5 SD of the protein, either way, in both replicates (recomputed). In short, it runs like this:
(§1)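 K562 cells at 2×10^6 cells/mL were given 10 μM compound for 30 min. Aliquots then went through 3 min of heating across 48°C-58°C, were pooled, and were extracted in PBS with 0.5% NP-40 at 4°C, and the supernatant after 21,000xg for 90 min was quantified by TMTpro 16plex LC-MS/MS with channel sums equalised. Thermal stability relative to control samples, from duplicates, is given as log2 fold change.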
With GOLT1B (UniProt Q9Y3E0), the log2 fold change is inactive: 0.033.

As for GRWD1 (UniProt Q9BQ67), the log2 fold change was inactive: 0.021. Same read-out and setting: then GRHPR (UniProt Q9UBQ7), with inactive: -0.028; and GLG1 isoform 2 (UniProt Q92896), with inactive: -0.007.

With GRSF1 (UniProt Q12849), the log2 fold change was inactive: 0.033. As for GPHN isoform 2 (UniProt Q9NQX3), the log2 fold change is inactive: -0.034. Same read-out and setting: for GLOD4 isoform 2 (UniProt Q9HC38) the value was inactive: 0.024. Still for that read-out and setting: then GLB1L2 (UniProt Q8IW92), with inactive: -0.097; and GIPC1 (UniProt O14908), with inactive: 0.006. On the same count and under the same terms, for GOLGA2 (UniProt Q08379) the value was inactive: -0.023.

Turning to GINS3 (UniProt Q9BRX5), the log2 fold change is inactive: -0.035. Turning to GOLGA5 (UniProt Q8TBA6), the log2 fold change is inactive: 0.004. Still for that read-out and setting: then GOT1 (UniProt P17174), with inactive: -0.031; and GM2A (UniProt P17900), with inactive: -0.087. Still for that read-out and setting: for GMFG (UniProt O60234) the value was inactive: 0.052.

Consider GNAQ (UniProt P50148), for which the log2 fold change was inactive: 0.025. As for GPATCH11 (UniProt Q8N954), the log2 fold change was inactive: 0.066.

Compound in a further assay: Cc1cn(-c2cc(NC(=O)c3ccc(C)c(Nc4nccc(-c5cccnc5)n4)c3)cc(C(F)(F)F)c2)cn1 [nilotinib]
Described as above. In short, it runs like this: as §1
For GMPPB isoform 2 (UniProt Q9Y5P6), the log2 fold change is inactive: 0.057. Turning to GK (UniProt P32189), the log2 fold change is inactive: 0.011. Same read-out and setting: for GRN (UniProt P28799) the value was inactive: 0.161; for GRB2 (UniProt P62993), inactive: 0.174. On the same count and under the same terms, then GINS4 (UniProt Q9BRT9), with inactive: 0.043; and GRAP2 (UniProt O75791), with inactive: 0.034. The same measure, in the same setting: then GPD1L (UniProt Q8N335), with inactive: -0.171. With GNA13 (UniProt Q14344), the log2 fold change was inactive: 0.03.

Take GOSR1 (UniProt O95249): the log2 fold change was inactive: 0.016. Regarding GPATCH8 (UniProt Q9UKJ3), the log2 fold change was inactive: 0.005.

With GPALPP1 (UniProt Q8IXQ4), the log2 fold change is inactive: -0.003. For GPD2 (UniProt P43304), the log2 fold change is inactive: 0. The same measure, in the same setting: for GPRIN1 (UniProt Q7Z2K8) the value was inactive: 0.093; for GPN3 isoform 2 (UniProt Q9UHW5), inactive: 0.019. Regarding GNPDA2 (UniProt Q8TDQ7), the log2 fold change was inactive: 0.085. On to GMPR2 isoform 2 (UniProt Q9P2T1), for which the log2 fold change is inactive: -0.016. For the target GNE isoform 2 (UniProt Q9Y223), the log2 fold change is inactive: 0.094. As for GPAA1 (UniProt O43292), the log2 fold change was inactive: -0.018.

For the target GPR107 (UniProt Q5VW38), the log2 fold change is inactive: 0.05. Consider GORASP2 isoform 3 (UniProt Q9H8Y8), for which the log2 fold change is inactive: -0.15.

As to GOLIM4 (UniProt O00461), the log2 fold change is inactive: 0.016. Same read-out and setting: for GPN1 isoform 5 (UniProt Q9HCN4) the value was inactive: 0.065; for GOLT1B (UniProt Q9Y3E0), inactive: -0.075; for GRWD1 (UniProt Q9BQ67), inactive: -0.009. In the case of GRHPR (UniProt Q9UBQ7), the log2 fold change is inactive: 0.004. The same measure, in the same setting: then GLG1 isoform 2 (UniProt Q92896), with inactive: -0.007.

Regarding GRSF1 (UniProt Q12849), the log2 fold change is inactive: 0.014. Still for that read-out and setting: then GPHN isoform 2 (UniProt Q9NQX3), with inactive: 0.018; and GLOD4 isoform 2 (UniProt Q9HC38), with inactive: -0.011. On the same count and under the same terms, then GLB1L2 (UniProt Q8IW92), with inactive: 0.008. Same read-out and setting: for GIPC1 (UniProt O14908) the value was inactive: 0.012; for GOLGA2 (UniProt Q08379), inactive: -0.068. For GINS3 (UniProt Q9BRX5), the log2 fold change was inactive: 0.011.

Take GOLGA5 (UniProt Q8TBA6): the log2 fold change was inactive: 0.069. As for GOT1 (UniProt P17174), the log2 fold change was inactive: -0.004. Same read-out and setting: then GM2A (UniProt P17900), with inactive: 0.038; and GMFG (UniProt O60234), with inactive: 0.036; and GNAQ (UniProt P50148), with inactive: 0.068. Regarding GPATCH11 (UniProt Q8N954), the log2 fold change was inactive: -0.013.
